The text below walks through data of the supplement of paper PMC5949888.

Most values lie at the floor of the assay. Slopes are relative: functional sequences can read slightly below zero.

The subject of this series is Saccharomyces cerevisiae PS128 hsf1 delta, HSF1(1-493) fusion. Briefly: growth estimate (transactivation domain function in HSF1 fusion, heat-shock survival) (a.u. (slope of normalised read count over time)); higher = stronger growth at 37°C, i.e. more transactivation activity. To be noted: library: random library.
As to WQLALGV, the growth estimate was under -0.25.

As for HAIRPSTLGGCLIPYIIPPV, the growth estimate is under -0.25.

As for IRQPFNLSTWGSTKGITRQ, the growth estimate was under -0.25.

For LAGAGLRRRRLMPRQRHDIN, the growth estimate is under -0.25.

For LVRIPSTCAYELVVLRVQSV, the growth estimate was under -0.25.

As to HSRYTSSWQNCRLLR, the growth estimate was -0.232.

Take RRCLAHQ: the growth estimate is under -0.25.

For the substance RTKHMAACRPSCS, the growth estimate is under -0.25.

With RVVG, the growth estimate is under -0.25.

Regarding LNAGCSCRVTRQ, the growth estimate was under -0.25.

Take PGG: the growth estimate was under -0.25.

As to WVDLGPSLSSSGKK, the growth estimate is under -0.25.

Regarding LHSGG, the growth estimate was under -0.25.

For KEG, the growth estimate is under -0.25.

On to MTVMRRRLTENGYSVERVSA, for which the growth estimate was under -0.25.

With DTIVLAIYWSATSTESCCPF, the growth estimate was under -0.25.

As for KGKDECP, the growth estimate is -0.243.

Take YRLGHFL: the growth estimate was under -0.25.

As for PHKKRPLGRRQ, the growth estimate is -0.109.

As to SVRGSP, the growth estimate was under -0.25.

LDDAGQVPPRHHLGYSELAP: the growth estimate was under -0.25.

Regarding GRTSLPAHGVRSPTCDGGRP, the growth estimate was under -0.25.

As for TRATC, the growth estimate was under -0.25.

Regarding VRVESWIRKLGRRRGFCCHR, the growth estimate is under -0.25.

SPASRGRRKVGVRGRNRDAT: the growth estimate was under -0.25.

Regarding EYQRKVRAGYREALVVETSP, the growth estimate is under -0.25.

Turning to RVRDTACIIKPHRRWG, the growth estimate was under -0.25.

Turning to ANASRSKRDNYVRTSLRTFV, the growth estimate was under -0.25.

In the case of HALLITRSSTEAKPASGAYT, the growth estimate was under -0.25.

Consider IPSVFRTLLRT, for which the growth estimate was under -0.25.

For MTSRVSTRGNLATKG, the growth estimate was under -0.25.

As for VVRHLIRQGSELRDSGTTLL, the growth estimate is under -0.25.

For the substance VLYTV, the growth estimate is under -0.25.

Take ERIYYL: the growth estimate was under -0.25.

In the case of RSYKPSLSFTGPTYLQ, the growth estimate is under -0.25.

For IEAPRWSIIGYEFRPLLRLD, the growth estimate is under -0.25.

In the case of RRMRGAPLRIGLRVYHVPWG, the growth estimate was under -0.25.

Regarding VGLRAIHELLIAIDV, the growth estimate was under -0.25.

Consider ACCESYGGSS, for which the growth estimate was under -0.25.

With SARLTSYWVRSECLYASLTK, the growth estimate was under -0.25.

Consider PVLLHRAPIE, for which the growth estimate is under -0.25.

Regarding LEPGL, the growth estimate was under -0.25.

With STLKRSVGLLATG, the growth estimate was under -0.25.

Consider RLTVREIRG, for which the growth estimate was under -0.25.

For QVYDSFRYALPGVEYTCFGL, the growth estimate was under -0.25.

For the substance AGRTKGHVLTSTQLTVPRPN, the growth estimate is under -0.25.

Consider QTNEPQGGELPRIFTLQLTV, for which the growth estimate is under -0.25.

In the case of INWEPKAHAW, the growth estimate is under -0.25.

SGRMKLVLEWLGGACCSTYR: the growth estimate was under -0.25.

In the case of WSRPRSHLQMRTHPLHRAFS, the growth estimate is -0.199.

As for GTSN, the growth estimate was under -0.25.

As to VFNCQLLSSGVVNTDSTILP, the growth estimate is under -0.25.

In the case of LLWNNQGVVLGCQRDNFEH, the growth estimate is under -0.25.

Regarding SVDYTHFEVHHGLKVNRASR, the growth estimate is under -0.25.

Take NLPPS: the growth estimate is under -0.25.

As for QQICLGRSDAESRSVADHLG, the growth estimate was under -0.25.

Regarding PVK, the growth estimate was under -0.25.

ALQDRSSVQLPHA: the growth estimate is -0.246.

For LRTEGCLKRNIKGRLGFALR, the growth estimate is under -0.25.

Regarding SFLSHIDPRLSRDTARVREM, the growth estimate is under -0.25.

For ILVRASSVRLVSKVQVGRNM, the growth estimate was under -0.25.

On to SDWRLQKMARGWLLSSGDTS, for which the growth estimate is -0.245.

Turning to QFVYGDWTRCAWTAGDKRIR, the growth estimate is under -0.25.

Consider MCGECT, for which the growth estimate is under -0.25.
